From paper PMC6335621 (Chemical Science, 2018)

Tests used:
MCF-7 = assay: In vitro cytotoxicity; assay type: cell-based, human; conditions: read-out: IC50 MCF-7; MTT assay, 72 h incubation
HeLa = assay: In vitro cytotoxicity; assay type: cell-based, human; conditions: read-out: IC50 HeLa; MTT assay, 72 h incubation

`N.N.[Cl][Pt][Cl]` [Cisplatin] gave an IC50 (MCF-7) of 13.2 ± 1.03 µM and an IC50 (HeLa) of 3.8 ± 0.51 µM.
